From the supplement of paper PMC4635364 come the findings set out here.

Experiment [1] deals with ReNCell VM. As to the kind of experiment: neuronal differentiation score (DCX+ cell fraction vs untreated, manual image score) (score (-3 to 3)); higher = more neuronal differentiation. The settings on record: 2 uM, 2 weeks.
Experiment [2] deals with ReNCell VM. Put plainly: dopaminergic neuron differentiation score (TH+ cell fraction vs untreated, manual image score) (score (0 to 3)); higher = more TH+ dopaminergic neuron differentiation. The settings on record: 2 uM, 4 weeks, BDNF 10 ng/ml + GDNF 10 ng/ml.

Structures can show the parent of a compound that is named as a salt. This is one part of the list. This data set is noisy: repeats of one test often differ as much as different tests do.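 Cells: ReNCell VM human fetal ventral-midbrain neural progenitors, differentiated mitogen-free. Blinded raters compared doublecortin-stained (early neurons) or tyrosine hydroxylase-stained (dopaminergic neurons) images with untreated wells, where 0 means no change. After repeats and both raters were averaged, compounds scoring 2 or above became hits for retesting.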

Take `O=P(O)(O)C(O)(Cc1cccnc1)P(=O)(O)O`: the neuronal differentiation score with ReNCell VM [1] (library: Spectrum) was inactive: 0. In the experiment with ReNCell VM [2] (library: Spectrum), the “dopaminergic neuron differentiation score” value was inactive: 0.
Turning to `Cc1ncc(CO)c(CO)c1O` [Pyridoxine hydrochloride], the neuronal differentiation score in the experiment on ReNCell VM [1] (library: Prestwick) was inactive: 0. For the same compound, the “dopaminergic neuron differentiation score” value with ReNCell VM [2] (library: Prestwick) was inactive: 0.
As for `COc1ccc([C@H]2c3cc(OC)c(OC)cc3C[C@@H](C)[C@@H]2C)cc1OC` [galbulin], in the experiment with ReNCell VM [1] (library: Natural), the neuronal differentiation score was inactive: 0. In the experiment with ReNCell VM [2] (library: Natural), the “dopaminergic neuron differentiation score” value is inactive: 0.
Regarding `OCc1ccccc1`, the neuronal differentiation score with ReNCell VM [1] (library: Spectrum) was inactive: 0. For the same compound, the “dopaminergic neuron differentiation score” value in the experiment with ReNCell VM [2] (library: Spectrum) was inactive: 0.
As to `O=C(O)c1cn(C2CC2)c2cc(N3CCNCC3)c(F)cc2c1=O`, the neuronal differentiation score with ReNCell VM [1] (library: Spectrum) is inactive: 0. Besides, the “dopaminergic neuron differentiation score” value in the experiment on ReNCell VM [2] (library: Spectrum) was inactive: 0.
Turning to `N=C(N)NCc1cccc(I)c1` [Iobenguane sulfate], in the experiment on ReNCell VM [1] (library: Prestwick), the neuronal differentiation score was inactive: 0. In the experiment with ReNCell VM [2] (library: Prestwick), the “dopaminergic neuron differentiation score” value was inactive: 0.
`CC(C)[C@H](CO)Nc1nc(Nc2cc(N)cc(Cl)c2)c2ncn(C(C)C)c2n1` [Aminopurvalanol A]: the neuronal differentiation score in the experiment on ReNCell VM [1] (library: Tocriscreen) is inactive: 0. In addition, in the experiment with ReNCell VM [2] (library: Tocriscreen), the “dopaminergic neuron differentiation score” value was inactive: 0.
On to `O=C(/C=C/c1ccc(O)c(O)c1)O[C@@H]1C[C@@](OC(=O)/C=C/c2ccc(O)c(O)c2)(C(=O)O)C[C@@H](O)[C@@H]1O` [Cynarin], for which, in the experiment on ReNCell VM [1] (library: Phytochemical), the neuronal differentiation score is inactive: 0. Also, the “dopaminergic neuron differentiation score” value in the experiment with ReNCell VM [2] (library: Phytochemical) is inactive: 0.
Regarding `Nc1nc(N)c2nc(CNc3ccc(C(=O)N[C@@H](CCC(=O)O)C(=O)O)cc3)cnc2n1`, in the experiment with ReNCell VM [1] (library: Spectrum), the neuronal differentiation score was inactive: 0. The “dopaminergic neuron differentiation score” value in the experiment with ReNCell VM [2] (library: Spectrum) was inactive: 0.
As for `Cc1ccc(S(=O)(=O)N[C@@H](Cc2ccccc2)C(=O)CCl)cc1` [N-p-Tosyl-L-phenylalanine chloromethyl ketone], in the experiment on ReNCell VM [1] (library: LOPAC), the neuronal differentiation score is inactive: 0. In addition, the “dopaminergic neuron differentiation score” value with ReNCell VM [2] (library: LOPAC) is inactive: 0.
Take `CCCCOC(=O)c1ccc(N)cc1` [Butamben]: in the experiment on ReNCell VM [1] (library: Prestwick), the neuronal differentiation score is inactive: 0. In the experiment with ReNCell VM [2] (library: Prestwick), the “dopaminergic neuron differentiation score” value is inactive: 0.
In the case of `CCCCN1CCCCC1C(=O)Nc1c(C)cccc1C` (stereo not given) [Bupivacaine hydrochloride], the neuronal differentiation score in the experiment with ReNCell VM [1] (library: Prestwick) was inactive: 0. The “dopaminergic neuron differentiation score” value in the experiment on ReNCell VM [2] (library: Prestwick) was inactive: 0.
For the compound `COc1cc(C)nc(-n2nc(C)cc2OC)n1` [Epirizole], the neuronal differentiation score with ReNCell VM [1] (library: Prestwick) was inactive: 0. Also, in the experiment with ReNCell VM [2] (library: Prestwick), the “dopaminergic neuron differentiation score” value was inactive: 0.
As to `NC(=O)N1c2ccccc2CC(=O)c2ccccc21`, the neuronal differentiation score in the experiment on ReNCell VM [1] (library: Spectrum) is inactive: 0. Besides, the “dopaminergic neuron differentiation score” value with ReNCell VM [2] (library: Spectrum) was inactive: 0.
Turning to `CC(C(=O)O)c1ccc2c(c1)Cc1cccnc1O2` (stereo not given), in the experiment with ReNCell VM [1] (library: Spectrum), the neuronal differentiation score is inactive: 0. For the same compound, the “dopaminergic neuron differentiation score” value with ReNCell VM [2] (library: Spectrum) is active: 3.
The matching figures for `COc1cc(O)c(C)c(O)c1`: inactive: 0 and inactive: 0.
The matching figures for `CC1(C)S[C@@H]2[C@H](N3C(=O)[C@@H](c4ccccc4)NC3(C)C)C(=O)N2[C@H]1C(=O)O`: inactive: 0 and inactive: 0.
Regarding `CC(=O)[C@H]1CC[C@H]2[C@@H]3C=CC4=CC(=O)CC[C@@]4(C)[C@@H]3CC[C@]12C` [Dydrogesterone], the neuronal differentiation score with ReNCell VM [1] (library: Prestwick) is inactive: 0. For the same compound, the “dopaminergic neuron differentiation score” value in the experiment on ReNCell VM [2] (library: Prestwick) was inactive: 0.
In the case of `Nc1ccc(C(=O)NCC(=O)O)cc1`, in the experiment with ReNCell VM [1] (library: Spectrum), the neuronal differentiation score was inactive: 0. Moreover, the “dopaminergic neuron differentiation score” value with ReNCell VM [2] (library: Spectrum) is inactive: 0.
Turning to `CO/N=C1\CN(c2nc3c(cc2F)c(=O)c(C(=O)O)cn3C2CC2)CC1CN` (stereo not given), the neuronal differentiation score with ReNCell VM [1] (library: Spectrum) is inactive: 0. In addition, the “dopaminergic neuron differentiation score” value in the experiment on ReNCell VM [2] (library: Spectrum) is inactive: 0.
For `CCN(c1ccccc1)c1cc(=NC)n(C)c(C)n1`, the neuronal differentiation score in the experiment with ReNCell VM [1] (library: Tocriscreen) was inactive: 0. Also, in the experiment with ReNCell VM [2] (library: Tocriscreen), the “dopaminergic neuron differentiation score” value was inactive: 0.
With `C=C1CCC2C(CC2(C)C)C(=O)CCC1O` (stereo not given), the neuronal differentiation score in the experiment with ReNCell VM [1] (library: Spectrum) was inactive: 0. For the same compound, the “dopaminergic neuron differentiation score” value with ReNCell VM [2] (library: Spectrum) was inactive: 0.
Turning to `Nc1nc(Cl)nc2c1ncn2[C@@H]1O[C@H](COP(=O)(O)OP(=O)(O)OP(=O)(O)O)[C@H](O)C1O` (stereo not given in full) [2-Chloroadenosine triphosphate tetrasodium], the neuronal differentiation score with ReNCell VM [1] (library: LOPAC) was inactive: -3. The “dopaminergic neuron differentiation score” value with ReNCell VM [2] (library: LOPAC) was inactive: 0.
With `O=C(O)CCCCCCCC(O)C(O)CCCCCCO` (stereo not given), the neuronal differentiation score in the experiment on ReNCell VM [1] (library: Spectrum) was inactive: 0. Moreover, the “dopaminergic neuron differentiation score” value with ReNCell VM [2] (library: Spectrum) is inactive: 0.
Regarding `Clc1ccc2c(c1)C(N1CCNCC1)=Nc1ccccc1O2`, in the experiment with ReNCell VM [1] (library: Spectrum), the neuronal differentiation score is inactive: 0. For the same compound, the “dopaminergic neuron differentiation score” value with ReNCell VM [2] (library: Spectrum) is inactive: 0.
Regarding `CCOC(=O)C1=C(COCCN)NC(C)=C(C(=O)OC)C1c1ccccc1Cl` (stereo not given), the neuronal differentiation score in the experiment with ReNCell VM [1] (library: Spectrum) was inactive: 0. Moreover, in the experiment on ReNCell VM [2] (library: Spectrum), the “dopaminergic neuron differentiation score” value was inactive: 0.
Regarding `CNCC[C@@H](Oc1ccc(C(F)(F)F)cc1)c1ccccc1` [R-(-)-Fluoxetine hydrochloride], the neuronal differentiation score in the experiment with ReNCell VM [1] (library: LOPAC) was inactive: 0. In the experiment on ReNCell VM [2] (library: LOPAC), the “dopaminergic neuron differentiation score” value was inactive: 0.
In the case of `CCOc1nc2cccc(C(=O)O)c2n1Cc1ccc(-c2ccccc2-c2nnn[nH]2)cc1` [Candesartan], the neuronal differentiation score with ReNCell VM [1] (library: Prestwick) was inactive: 0. In the experiment on ReNCell VM [2] (library: Prestwick), the “dopaminergic neuron differentiation score” value is inactive: 0.
With `Cc1cc2cc3c(C)cc(=O)oc3c(C)c2o1`, the neuronal differentiation score in the experiment on ReNCell VM [1] (library: Spectrum) was inactive: 0. In the experiment with ReNCell VM [2] (library: Spectrum), the “dopaminergic neuron differentiation score” value is inactive: 0.
As to `CC1=NN(c2ccc([N+](=O)[O-])cc2)C(=O)C1[N+](=O)[O-]` (stereo not given) [picrolonic acid], the neuronal differentiation score in the experiment on ReNCell VM [1] (library: Natural) is inactive: 0. The “dopaminergic neuron differentiation score” value in the experiment on ReNCell VM [2] (library: Natural) was inactive: 0.
For `NCCNCCNCCNCCN` [Tetraethylenepentamine pentahydrochloride], in the experiment on ReNCell VM [1] (library: Prestwick), the neuronal differentiation score is inactive: 0. Besides, the “dopaminergic neuron differentiation score” value in the experiment on ReNCell VM [2] (library: Prestwick) is inactive: 0.
As for `O=[N+]([O-])c1cccc2cn[nH]c12`, the neuronal differentiation score with ReNCell VM [1] (library: Spectrum) was inactive: 0. Further, the “dopaminergic neuron differentiation score” value with ReNCell VM [2] (library: Spectrum) is inactive: 0.
Take `O=C(O)C(Oc1ccc2ccc(=O)oc2c1)c1ccccc1` (stereo not given) [(2-oxo-2h-chromen-7-yloxy)-phenyl-acetic acid]: in the experiment with ReNCell VM [1] (library: Natural), the neuronal differentiation score was inactive: 0. Besides, in the experiment on ReNCell VM [2] (library: Natural), the “dopaminergic neuron differentiation score” value is inactive: 0.
In the case of `CC1(C)[C@@H](O)CC[C@]2(C)[C@H]3C(=O)C=C4[C@H]5C[C@@](C)(C(=O)O)CC[C@]5(C)CC[C@@]4(C)[C@]3(C)CC[C@@H]12` [18alpha-GLYCYRRHETINIC ACID], the neuronal differentiation score in the experiment on ReNCell VM [1] (library: Spectrum) was inactive: 0. Further, the “dopaminergic neuron differentiation score” value in the experiment on ReNCell VM [2] (library: Spectrum) was inactive: 0.
Take `O=C(C=Cc1ccc(O)cc1)c1ccccc1O`: the neuronal differentiation score with ReNCell VM [1] (library: Spectrum) was inactive: 0. In addition, in the experiment on ReNCell VM [2] (library: Spectrum), the “dopaminergic neuron differentiation score” value was inactive: 0.
